Reference: the supplement of paper PMC10338343
± gives the standard deviation. The list shows a part of the results, in another mix than the full data. Many entries were measured with a wide error.

system: MIWI (PIWIL1) piRISC loaded with L1MC piRNA (30 nt); assay: pre-steady-state target cleavage rate (min^-1); MIWI and MILI are mouse PIWI proteins and EfPiwi is from a freshwater sponge; tags in brackets are library labels; higher = faster piRNA-guided slicing of the target; settings: guide: L1MC piRNA 5'p-UAACUAAAUACUAUGCAAGCUGUAGGUCCU; auxiliary factor: none (no GTSF1)
In short: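 Reactions were run for 0–8 or 0–960 min at 33 °C in HEPES–potassium acetate buffer, combining 1 nM active affinity-purified piRISC with one synthetic guide, […] transcribed, DNA-blocked target RNA library and, in some cases, 500 nM GTSF1 partner protein. Sequencing of uncleaved targets followed, with normalisation to depth and to weakly complementary targets. Three trials were pooled, k3 was capped at 0.0001 min^-1, and the pre-steady-state cleavage rate was taken from a burst-and-steady-state fit.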
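Note: 1 nM active piRISC with 0.1 nM target library at 33 °C single turnover.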

Which “pre-steady-state target cleavage rate” value does the source give for UCCACCUACAGCAAGCAUAGUAUUUUCAAA here?
The value was 0.000477 ± 0.009.

How did the “pre-steady-state target cleavage rate” value turn out when AGCUCCUACAGCUUGCAUAGUAUUUUCAAA was run?
The value was 0.00249 ± 0.0042.

Which “pre-steady-state target cleavage rate” value does the source give for AGGACCUACAGCUUGCAUAGUUUUAGUUA here?
Its value is 0.00156 ± 0.0061.

For UGGACCUACAGCUUGCAUAGUUAUUUCAAA, which “pre-steady-state target cleavage rate” value is on record?
Its value is 0.00051 ± 0.0096.

Which “pre-steady-state target cleavage rate” value does the source give for UGGACCUACAGCUUGCUAAGUAUUUUCAAA here?
Its value is 0.000183 ± 0.013.

UGGACCUACAGCUUGCAUGAGUAUUUAGUUA was tested. Which “pre-steady-state target cleavage rate” value did it give?
Its value is 0.000824 ± 0.0085.

For UCCACCUAGUCCUUGCAUAGUAUUUUCAAA, which “pre-steady-state target cleavage rate” value is on record?
The value was 0.00117 ± 0.0032.

UCCUGGAUGAGCUUGCAAUCUAUUUAGUUA was tested. Which “pre-steady-state target cleavage rate” value did it give?
Its value is 0.000723 ± 0.0043.

UCGACCUACAGCUUGCAUAAGUAUUUAGUUA was tested. Which “pre-steady-state target cleavage rate” value did it give?
The value was 0.00104 ± 0.0069.

For UCCACCUACAGCUUCCAUAGUAUUUUGUUA, which “pre-steady-state target cleavage rate” value is on record?
The value was 0.00112 ± 0.0052.

Which “pre-steady-state target cleavage rate” value does the source give for AGGACCUACAGCUUCCAUAGUAUUUACAAA here?
Its value is 0.0006 ± 0.011.

With UGGACCUACAGCUUGCAUAGUAAUUACAAA as the sequence, how does the “pre-steady-state target cleavage rate” value read?
The value was 0.00111 ± 0.0054.

With “AGGACCUACAGCUUGCAUAGUUAAAUCAAA [g10:g30:cont:t1A]” as the sequence, how does the “pre-steady-state target cleavage rate” value read?
Its value is 0.00113 ± 0.0073.

UCCUGGAUGUCGAUGCAUAGUUUUUAGUAA was tested. Which “pre-steady-state target cleavage rate” value did it give?
The value was 0.000644 ± 0.007.

For AGGACCUACAGCAAGCAUAGUAUUUACAAA, which “pre-steady-state target cleavage rate” value is on record?
The value was 0.00134 ± 0.0049.

Which “pre-steady-state target cleavage rate” value does the source give for UCCUGGAUGUCGAUGCAUAGAAUUAAGUUA here?
The value was 0.000427 ± 0.012.

With UCCUGGAUGUCGAAGCUUAGAAUUUAGUUA as the sequence, how does the “pre-steady-state target cleavage rate” value read?
Its value is 0.000521 ± 0.014.

Which “pre-steady-state target cleavage rate” value does the source give for UCGACCUACAGCUUGCAUAGUUUUUACAAA here?
Its value is 0.00214 ± 0.0039.

For UGGACCUACAGCUUGCAUAGAUUUUAGAAA, which “pre-steady-state target cleavage rate” value is on record?
Its value is 0.000394 ± 0.0069.

How did the “pre-steady-state target cleavage rate” value turn out when UCGACCUACAGCUUGCAUAGUAAUUAGAAA was run?
Its value is 0.00244 ± 0.0032.

How did the “pre-steady-state target cleavage rate” value turn out when UCCACCUACAGCUUGCAUAAGUAUUUAGUUA was run?
The value was 0.000821 ± 0.0095.

With AGGACCUACAGCUUGCAUUCUAUUUAGAAA as the sequence, how does the “pre-steady-state target cleavage rate” value read?
Its value is 0.00161 ± 0.0043.

Which “pre-steady-state target cleavage rate” value does the source give for UCCUGGAUGUCGAACCAUAAUAUUUAGUUA here?
Its value is 0.000104 ± 0.022.

AGGACCUACAGCUUGCAUUGUAUUUUCAAA was tested. Which “pre-steady-state target cleavage rate” value did it give?
Its value is 0.00177 ± 0.005.

Which “pre-steady-state target cleavage rate” value does the source give for UCCACCUACAGCUUGCUAUAGUAUUUAGUUA here?
Its value is 0.000285 ± 0.0085.

AGGACCUACAGCUUGCAUACAAUUUACAAA was tested. Which “pre-steady-state target cleavage rate” value did it give?
Its value is 0.00113 ± 0.0076.

For UCGACCUACAGCUUGCAUAGUAAAAAGUAA, which “pre-steady-state target cleavage rate” value is on record?
The value was 0.0012 ± 0.0069.

For “UGGACCUACAGCUUGCAUACAUAAAUCAAA [g12:g29:cont:t1A]”, which “pre-steady-state target cleavage rate” value is on record?
Its value is 0.000169 ± 0.018.

UCGACCUACAGCUUGCAUUCUAUUUUCAAA was tested. Which “pre-steady-state target cleavage rate” value did it give?
Its value is 0.000436 ± 0.015.

Which “pre-steady-state target cleavage rate” value does the source give for UGCACCUACAGCUUGCAUAGUAUUUACAAA here?
Its value is 0.00293 ± 0.0035.

With AGGACCUACAGCAAGCAUAGUAUUUUCAAA as the sequence, how does the “pre-steady-state target cleavage rate” value read?
The value was 0.001 ± 0.0065.

How did the “pre-steady-state target cleavage rate” value turn out when UCCACCUACAGCUUGCAUACAUUUUAGUAA was run?
Its value is 0.000209 ± 0.013.

With UGGACCUACAGCUUGCAUAGUAAAUACAAA as the sequence, how does the “pre-steady-state target cleavage rate” value read?
The value was 0.000237 ± 0.012.

Which “pre-steady-state target cleavage rate” value does the source give for UGGACCUACAGCUUGCAUUCUAUUUUCAAA here?
The value was 0.000194 ± 0.011.

For UCCACCUAGUCCUUGCAUAGUAUUUAGAAA, which “pre-steady-state target cleavage rate” value is on record?
Its value is 0.00186 ± 0.0024.

Which “pre-steady-state target cleavage rate” value does the source give for UCGACCUACAGCUUGCAUACAUUUUAGUAA here?
The value was 0.000818 ± 0.0078.

For UGGACCUACAGCUUGCAAUCUAUUUAGUUA, which “pre-steady-state target cleavage rate” value is on record?
The value was 0.00241 ± 0.0031.

How did the “pre-steady-state target cleavage rate” value turn out when UCCACCUACAGCUUGCAUAGUAAUUUCAAA was run?
Its value is 0.000566 ± 0.013.
